For this assay, the target named is human Notch1 transiently expressed in HEK293 cells (HEK293-hN1) (human) (UniProt P46531). Kind of assay: flow cytometry on cells; competition: Notch1 transfected HEK293 cells preincubated with 20 uM binders 1 h on ice, then 2 nM JAG1-Fc or DLL4-Fc 1 h; APC anti-Fc; Amnis ImageStream; only the binder purified.

By UniProt entry, the sequences of proteins in these tests, tags left out. Residues count along the entry.
UniProt P46531, residues 19-2555: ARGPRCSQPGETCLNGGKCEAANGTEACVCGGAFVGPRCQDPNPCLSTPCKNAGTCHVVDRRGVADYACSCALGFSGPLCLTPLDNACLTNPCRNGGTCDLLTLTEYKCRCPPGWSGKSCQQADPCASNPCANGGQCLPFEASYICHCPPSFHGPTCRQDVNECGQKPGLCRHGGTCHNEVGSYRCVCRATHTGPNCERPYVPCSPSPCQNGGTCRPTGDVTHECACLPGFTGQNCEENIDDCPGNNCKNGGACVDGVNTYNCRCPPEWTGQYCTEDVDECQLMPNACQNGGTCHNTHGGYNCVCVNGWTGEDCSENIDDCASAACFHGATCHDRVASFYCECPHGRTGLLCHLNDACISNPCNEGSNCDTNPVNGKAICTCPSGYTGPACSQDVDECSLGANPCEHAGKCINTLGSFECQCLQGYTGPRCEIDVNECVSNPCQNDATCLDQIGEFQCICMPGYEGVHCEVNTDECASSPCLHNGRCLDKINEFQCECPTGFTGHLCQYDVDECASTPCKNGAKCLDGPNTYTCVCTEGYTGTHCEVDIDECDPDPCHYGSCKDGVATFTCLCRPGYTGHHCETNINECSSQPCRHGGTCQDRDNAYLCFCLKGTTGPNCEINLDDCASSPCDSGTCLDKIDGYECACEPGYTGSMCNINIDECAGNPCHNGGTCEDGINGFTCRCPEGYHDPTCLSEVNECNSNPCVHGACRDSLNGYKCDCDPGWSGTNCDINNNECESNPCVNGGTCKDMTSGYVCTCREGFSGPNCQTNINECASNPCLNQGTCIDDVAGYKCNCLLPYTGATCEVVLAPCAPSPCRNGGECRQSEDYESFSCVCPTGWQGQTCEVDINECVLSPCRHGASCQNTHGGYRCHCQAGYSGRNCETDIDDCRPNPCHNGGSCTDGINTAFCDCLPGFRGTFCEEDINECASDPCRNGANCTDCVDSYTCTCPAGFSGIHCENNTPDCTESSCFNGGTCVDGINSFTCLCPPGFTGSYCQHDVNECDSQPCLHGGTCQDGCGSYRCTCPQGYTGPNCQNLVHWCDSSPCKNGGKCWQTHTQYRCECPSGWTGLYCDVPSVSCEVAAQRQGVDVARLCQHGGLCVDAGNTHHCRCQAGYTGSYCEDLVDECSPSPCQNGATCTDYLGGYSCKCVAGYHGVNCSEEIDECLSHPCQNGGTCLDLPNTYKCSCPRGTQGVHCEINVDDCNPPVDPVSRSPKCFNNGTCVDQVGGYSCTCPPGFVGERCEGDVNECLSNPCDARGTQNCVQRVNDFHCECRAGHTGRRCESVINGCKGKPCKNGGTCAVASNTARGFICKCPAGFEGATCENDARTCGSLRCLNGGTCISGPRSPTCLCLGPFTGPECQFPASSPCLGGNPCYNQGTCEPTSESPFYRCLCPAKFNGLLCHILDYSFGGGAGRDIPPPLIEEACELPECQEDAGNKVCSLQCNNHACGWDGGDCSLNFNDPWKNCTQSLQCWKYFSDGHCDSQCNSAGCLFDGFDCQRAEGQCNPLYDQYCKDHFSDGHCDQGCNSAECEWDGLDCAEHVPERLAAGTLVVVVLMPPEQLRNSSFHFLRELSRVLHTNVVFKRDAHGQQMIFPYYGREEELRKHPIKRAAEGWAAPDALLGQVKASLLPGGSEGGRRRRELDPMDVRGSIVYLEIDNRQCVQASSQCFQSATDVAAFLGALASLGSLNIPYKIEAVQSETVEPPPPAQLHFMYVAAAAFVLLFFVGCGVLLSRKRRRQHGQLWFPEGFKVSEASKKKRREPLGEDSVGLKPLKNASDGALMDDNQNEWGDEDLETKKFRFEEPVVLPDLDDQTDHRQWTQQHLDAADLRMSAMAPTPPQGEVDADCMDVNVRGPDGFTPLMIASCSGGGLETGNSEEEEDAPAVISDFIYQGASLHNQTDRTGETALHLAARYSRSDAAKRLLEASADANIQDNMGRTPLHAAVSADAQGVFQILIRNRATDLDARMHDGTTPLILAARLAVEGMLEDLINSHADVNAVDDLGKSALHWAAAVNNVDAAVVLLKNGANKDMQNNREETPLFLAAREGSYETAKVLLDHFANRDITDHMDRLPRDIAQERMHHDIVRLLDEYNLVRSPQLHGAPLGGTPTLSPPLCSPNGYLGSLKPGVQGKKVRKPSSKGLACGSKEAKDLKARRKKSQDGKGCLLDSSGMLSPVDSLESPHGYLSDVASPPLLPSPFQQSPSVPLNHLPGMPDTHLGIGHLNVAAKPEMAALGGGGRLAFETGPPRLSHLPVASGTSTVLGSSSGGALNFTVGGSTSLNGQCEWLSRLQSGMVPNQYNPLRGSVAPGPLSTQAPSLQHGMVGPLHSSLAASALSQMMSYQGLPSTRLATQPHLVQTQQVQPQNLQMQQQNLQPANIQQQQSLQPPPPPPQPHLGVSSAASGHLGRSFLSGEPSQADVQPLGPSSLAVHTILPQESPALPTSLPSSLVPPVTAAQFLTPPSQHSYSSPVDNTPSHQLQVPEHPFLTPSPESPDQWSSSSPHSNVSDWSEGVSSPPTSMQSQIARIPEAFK
UniProt P78504, residues 34-1067: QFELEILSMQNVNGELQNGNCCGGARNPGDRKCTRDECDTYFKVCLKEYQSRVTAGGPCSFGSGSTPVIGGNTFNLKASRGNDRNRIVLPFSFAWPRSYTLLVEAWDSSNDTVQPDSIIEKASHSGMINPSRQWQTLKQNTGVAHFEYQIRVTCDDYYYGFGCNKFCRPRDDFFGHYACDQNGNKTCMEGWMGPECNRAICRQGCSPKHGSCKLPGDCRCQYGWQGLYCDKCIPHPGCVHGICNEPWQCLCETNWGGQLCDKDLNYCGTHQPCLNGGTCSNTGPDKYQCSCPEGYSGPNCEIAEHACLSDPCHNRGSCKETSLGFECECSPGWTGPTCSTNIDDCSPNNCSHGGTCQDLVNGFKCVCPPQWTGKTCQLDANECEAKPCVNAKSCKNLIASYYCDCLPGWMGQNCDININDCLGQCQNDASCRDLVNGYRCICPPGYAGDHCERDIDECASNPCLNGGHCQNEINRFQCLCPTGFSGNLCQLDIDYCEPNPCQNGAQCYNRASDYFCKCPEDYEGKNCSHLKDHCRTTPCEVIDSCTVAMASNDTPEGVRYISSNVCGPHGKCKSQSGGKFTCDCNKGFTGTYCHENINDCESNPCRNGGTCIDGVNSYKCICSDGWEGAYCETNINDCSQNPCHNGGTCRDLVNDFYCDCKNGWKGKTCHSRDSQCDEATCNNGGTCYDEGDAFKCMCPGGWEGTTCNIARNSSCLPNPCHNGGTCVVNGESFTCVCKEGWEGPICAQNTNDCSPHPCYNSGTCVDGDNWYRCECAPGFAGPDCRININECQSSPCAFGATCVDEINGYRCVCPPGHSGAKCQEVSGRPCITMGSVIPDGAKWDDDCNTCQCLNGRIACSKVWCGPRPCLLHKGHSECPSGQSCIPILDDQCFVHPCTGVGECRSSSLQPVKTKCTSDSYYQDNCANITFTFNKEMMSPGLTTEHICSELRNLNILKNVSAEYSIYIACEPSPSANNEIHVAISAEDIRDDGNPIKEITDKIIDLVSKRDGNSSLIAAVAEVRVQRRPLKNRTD

No constants are given. Whether binding was seen depends on the method and setting. Some entries that bind do so weakly or less than the wild type.

As to “human recombinant JAG1-Fc (from UniProt P78504 34-1067) (Fc fusion)”, the binding entry is on record as “binds”.
